Measured values published in patent US20100022559A1, “BISOXIMES AS FUNGICIDES” (BAYER CROPSCIENCE AG, priority 2006, published 2010).
Some of these results come from one statement about several compounds together. At least one compound was matched to its structure with a doubt left.

The compounds below were run on Pyrenophora teres (assay: Pyrenophora teres test (barley)/protective). Details: active compound concentration 1000 ppm, protective, evaluation 8 days after inoculation.
Type: in vivo
In the case of `CCC(=NOCC(C)(C)CON=C(CC)c1cccc(C)n1)c1cccc(C)n1` [Compound 277], the efficacy is reported as at least 70%.
Compound `CCC(=NOCC1(CON=C(CC)c2cc(C)cc(C)n2)CC1)c1cc(C)cc(C)n1` (mixture of isomers) [Compound 570] has an efficacy of at least 70%.
`CCC(C)(CON=C(C)c1ccc(C)c(C)n1)CON=C(C)c1ccc(C)c(C)n1` (stereo not drawn) [Compound 793] showed an efficacy of at least 70%.
`CC(=NOCC(C)CON=C(C)c1ccc(C)c(C)n1)c1cc(C)cc(C)n1` (racemic) [Compound 694] showed an efficacy of at least 70%.
Work on `CC[Si](C)(CON=C(C)c1cccc(C)n1)CON=C(C)c1cccc(C)n1` [Compound 785] yielded an efficacy of at least 70%.
Compound `CCCC(CON=C(C)c1ccc(C)c(C)n1)CON=C(C)c1ccc(C)c(C)n1` (stereo not drawn) [Compound 316] has an efficacy of at least 70%.
Compound `C=C(CON=C(C)c1cccc(C)n1)CON=C(C)c1cc(C)cc(C)n1` [Compound 474] has an efficacy of at least 70%.
In the case of `CC(=NOCC(CON=C(C)c1cc(C)cc(C)n1)Cc1ccccc1)c1cc(C)cc(C)n1` (stereo not drawn) [Compound 582], the efficacy is reported as at least 70%.
Work on `CC(=NOCCC(C)ON=C(C)c1cc(C)cc(C)n1)c1cc(C)cc(C)n1` (stereo not drawn) [Compound 558] yielded an efficacy of at least 70%.
Compound `CC(=NOCC(C)CON=C(C)c1ccc2c(n1)CCCC2)c1ccc2c(n1)CCCC2` (stereo not drawn) [Compound 304] has an efficacy of at least 70%.
With `CCC(=NOCC(C)CON=C(CC)c1cc(C)cc(C)n1)c1cc(C)cc(C)n1` (mixture of isomers) [Compound 572] the efficacy was at least 70%.
`CC(=NOCC(CON=C(C)c1cccc(C)n1)C(C)(C)C)c1cccc(C)n1` (stereo not drawn) [Compound 269] was tested, and the efficacy was at least 70%.

These compounds were tested on Venturia inaequalis (assay: Venturia test (apple)/protective). Details: active compound concentration 100 ppm, protective, evaluation 10 days after inoculation.
Type: in vivo
For `CCC(=NOCC(C)(C)CON=C(CC)c1cccc(C)n1)c1cccc(C)n1` [Compound 277], the efficacy was at least 70%.
For `CCC(=NOCC1(CON=C(CC)c2cc(C)cc(C)n2)CC1)c1cc(C)cc(C)n1` (mixture of isomers) [Compound 570], the efficacy was at least 70%.
For `CC(=NOCC(CON=C(C)c1cc(C)cc(C)n1)C(C)(C)C)c1cc(C)cc(C)n1` (stereo not drawn) [Compound 559], the efficacy was at least 70%.
For `CC(=NOCC(CON=C(C)c1cc(C)cc(C)n1)C(C)C)c1cc(C)cc(C)n1` (stereo not drawn) [Compound 682], the efficacy was at least 70%.
Compound `CC(=NOCC(C)CON=C(C)c1ccc(C)c(C)n1)c1cc(C)cc(C)n1` (racemic) [Compound 694] has an efficacy of at least 70%.
`CCCC(CON=C(C)c1ccc(C)c(C)n1)CON=C(C)c1ccc(C)c(C)n1` (stereo not drawn) [Compound 316] was tested, and the efficacy was at least 70%.
Work on `C=C(CON=C(C)c1cccc(C)n1)CON=C(C)c1cc(C)cc(C)n1` [Compound 474] yielded an efficacy of at least 70%.
Compound `CC(=NOCCC(C)ON=C(C)c1cc(C)cc(C)n1)c1cc(C)cc(C)n1` (stereo not drawn) [Compound 558] has an efficacy of at least 70%.
`CC(=NOCC(C)CON=C(C)c1ccc2c(n1)CCCC2)c1ccc2c(n1)CCCC2` (stereo not drawn) [Compound 304] gave an efficacy of at least 70%.
Work on `CCC(=NOCC(C)CON=C(CC)c1cc(C)cc(C)n1)c1cc(C)cc(C)n1` (mixture of isomers) [Compound 572] yielded an efficacy of at least 70%.

Each compound was assayed on Sphaerotheca fuliginea (assay: Sphaerotheca test (cucumber)/protective). Details: active compound concentration 500 ppm, protective, evaluation 7 days after inoculation.
Type: in vivo
Compound `CCC(=NOCC(C)(C)CON=C(CC)c1cccc(C)n1)c1cccc(C)n1` [Compound 277] has an efficacy of at least 70%.
`CC(=NOCC(CON=C(C)c1cc(C)cc(C)n1)C(C)(C)C)c1cc(C)cc(C)n1` (stereo not drawn) [Compound 559] gave an efficacy of at least 70%.
Compound `CCC(C)(CON=C(C)c1ccc(C)c(C)n1)CON=C(C)c1ccc(C)c(C)n1` (stereo not drawn) [Compound 793] has an efficacy of at least 70%.
`CC(=NOCC(CON=C(C)c1cc(C)cc(C)n1)C(C)C)c1cc(C)cc(C)n1` (stereo not drawn) [Compound 682] was tested, and the efficacy was at least 70%.
In the case of `CC(=NOCC(C)CON=C(C)c1ccc(C)c(C)n1)c1cc(C)cc(C)n1` (racemic) [Compound 694], the efficacy is reported as at least 70%.
`CC[Si](C)(CON=C(C)c1cccc(C)n1)CON=C(C)c1cccc(C)n1` [Compound 785] gave an efficacy of at least 70%.
`CCCC(CON=C(C)c1ccc(C)c(C)n1)CON=C(C)c1ccc(C)c(C)n1` (stereo not drawn) [Compound 316] showed an efficacy of at least 70%.
`CC(=NOCC(CON=C(C)c1cc(C)cc(C)n1)Cc1ccccc1)c1cc(C)cc(C)n1` (stereo not drawn) [Compound 582] gave an efficacy of at least 70%.
`CC(=NOCCC(C)ON=C(C)c1cc(C)cc(C)n1)c1cc(C)cc(C)n1` (stereo not drawn) [Compound 558] gave an efficacy of at least 70%.
`CC(=NOCC(C)CON=C(C)c1ccc2c(n1)CCCC2)c1ccc2c(n1)CCCC2` (stereo not drawn) [Compound 304] was tested, and the efficacy was at least 70%.
`CCC(=NOCC(C)CON=C(CC)c1cc(C)cc(C)n1)c1cc(C)cc(C)n1` (mixture of isomers) [Compound 572] showed an efficacy of at least 70%.
Work on `CC(=NOCC(CON=C(C)c1cccc(C)n1)C(C)(C)C)c1cccc(C)n1` (stereo not drawn) [Compound 269] yielded an efficacy of at least 70%.

These compounds were tested on Leptosphaeria nodorum (assay: Leptosphaeria nodorum test (wheat)/protective). Details: active compound concentration 1000 ppm, protective, evaluation 10 days after inoculation.
Type: in vivo
With `CCC(=NOCC(C)(C)CON=C(CC)c1cccc(C)n1)c1cccc(C)n1` [Compound 277] the efficacy was at least 70%.
`CCC(=NOCC1(CON=C(CC)c2cc(C)cc(C)n2)CC1)c1cc(C)cc(C)n1` (mixture of isomers) [Compound 570] gave an efficacy of at least 70%.
With `CC(=NOCC(CON=C(C)c1cc(C)cc(C)n1)C(C)(C)C)c1cc(C)cc(C)n1` (stereo not drawn) [Compound 559] the efficacy was at least 70%.
Work on `CCC(C)(CON=C(C)c1ccc(C)c(C)n1)CON=C(C)c1ccc(C)c(C)n1` (stereo not drawn) [Compound 793] yielded an efficacy of at least 70%.
`CC(=NOCC(CON=C(C)c1cc(C)cc(C)n1)C(C)C)c1cc(C)cc(C)n1` (stereo not drawn) [Compound 682] was tested, and the efficacy was at least 70%.
In the case of `CC(=NOCC(C)CON=C(C)c1ccc(C)c(C)n1)c1cc(C)cc(C)n1` (racemic) [Compound 694], the efficacy is reported as at least 70%.
With `CC[Si](C)(CON=C(C)c1cccc(C)n1)CON=C(C)c1cccc(C)n1` [Compound 785] the efficacy was at least 70%.
For `CCCC(CON=C(C)c1ccc(C)c(C)n1)CON=C(C)c1ccc(C)c(C)n1` (stereo not drawn) [Compound 316], the efficacy was at least 70%.
With `C=C(CON=C(C)c1cccc(C)n1)CON=C(C)c1cc(C)cc(C)n1` [Compound 474] the efficacy was at least 70%.
For `CC(=NOCC(CON=C(C)c1cc(C)cc(C)n1)Cc1ccccc1)c1cc(C)cc(C)n1` (stereo not drawn) [Compound 582], the efficacy was at least 70%.
`CC(=NOCCC(C)ON=C(C)c1cc(C)cc(C)n1)c1cc(C)cc(C)n1` (stereo not drawn) [Compound 558] showed an efficacy of at least 70%.
For `CC(=NOCC(C)CON=C(C)c1ccc2c(n1)CCCC2)c1ccc2c(n1)CCCC2` (stereo not drawn) [Compound 304], the efficacy was at least 70%.
In the case of `CCC(=NOCC(C)CON=C(CC)c1cc(C)cc(C)n1)c1cc(C)cc(C)n1` (mixture of isomers) [Compound 572], the efficacy is reported as at least 70%.
`CC(=NOCC(CON=C(C)c1cccc(C)n1)C(C)(C)C)c1cccc(C)n1` (stereo not drawn) [Compound 269] was tested, and the efficacy was at least 70%.

The compounds below were run on Puccinia recondita (assay: Puccinia test (wheat)/protective). Details: active compound concentration 500 ppm, protective, evaluation 8-10 days after inoculation.
Type: in vivo
With `CCC(=NOCC(C)(C)CON=C(CC)c1cccc(C)n1)c1cccc(C)n1` [Compound 277] the efficacy was at least 70%.
Work on `CCC(=NOCC1(CON=C(CC)c2cc(C)cc(C)n2)CC1)c1cc(C)cc(C)n1` (mixture of isomers) [Compound 570] yielded an efficacy of at least 70%.
In the case of `CC(=NOCC(CON=C(C)c1cc(C)cc(C)n1)C(C)(C)C)c1cc(C)cc(C)n1` (stereo not drawn) [Compound 559], the efficacy is reported as at least 70%.
`CCC(C)(CON=C(C)c1ccc(C)c(C)n1)CON=C(C)c1ccc(C)c(C)n1` (stereo not drawn) [Compound 793] was tested, and the efficacy was at least 70%.
`CC(=NOCC(CON=C(C)c1cc(C)cc(C)n1)C(C)C)c1cc(C)cc(C)n1` (stereo not drawn) [Compound 682] was tested, and the efficacy was at least 70%.
In the case of `CC(=NOCC(C)CON=C(C)c1ccc(C)c(C)n1)c1cc(C)cc(C)n1` (racemic) [Compound 694], the efficacy is reported as at least 70%.
`CC[Si](C)(CON=C(C)c1cccc(C)n1)CON=C(C)c1cccc(C)n1` [Compound 785] gave an efficacy of at least 70%.
`CCCC(CON=C(C)c1ccc(C)c(C)n1)CON=C(C)c1ccc(C)c(C)n1` (stereo not drawn) [Compound 316] gave an efficacy of at least 70%.
Work on `C=C(CON=C(C)c1cccc(C)n1)CON=C(C)c1cc(C)cc(C)n1` [Compound 474] yielded an efficacy of at least 70%.
For `CC(=NOCC(CON=C(C)c1cc(C)cc(C)n1)Cc1ccccc1)c1cc(C)cc(C)n1` (stereo not drawn) [Compound 582], the efficacy was at least 70%.
Work on `CC(=NOCCC(C)ON=C(C)c1cc(C)cc(C)n1)c1cc(C)cc(C)n1` (stereo not drawn) [Compound 558] yielded an efficacy of at least 70%.
Work on `CC(=NOCC(C)CON=C(C)c1ccc2c(n1)CCCC2)c1ccc2c(n1)CCCC2` (stereo not drawn) [Compound 304] yielded an efficacy of at least 70%.
For `CCC(=NOCC(C)CON=C(CC)c1cc(C)cc(C)n1)c1cc(C)cc(C)n1` (mixture of isomers) [Compound 572], the efficacy was at least 70%.
`CC(=NOCC(CON=C(C)c1cccc(C)n1)C(C)(C)C)c1cccc(C)n1` (stereo not drawn) [Compound 269] gave an efficacy of at least 70%.

These compounds were tested on Botrytis cinerea (assay: Botrytis test (bean)/protective). Details: active compound concentration 250 ppm, protective, evaluation 2 days after inoculation.
Type: in vivo
Work on `CCC(=NOCC1(CON=C(CC)c2cc(C)cc(C)n2)CC1)c1cc(C)cc(C)n1` (mixture of isomers) [Compound 570] yielded an efficacy of at least 70%.
`CC(=NOCC(CON=C(C)c1cc(C)cc(C)n1)C(C)(C)C)c1cc(C)cc(C)n1` (stereo not drawn) [Compound 559] was tested, and the efficacy was at least 70%.
`CCC(C)(CON=C(C)c1ccc(C)c(C)n1)CON=C(C)c1ccc(C)c(C)n1` (stereo not drawn) [Compound 793] was tested, and the efficacy was at least 70%.
`CC(=NOCC(CON=C(C)c1cc(C)cc(C)n1)C(C)C)c1cc(C)cc(C)n1` (stereo not drawn) [Compound 682] was tested, and the efficacy was at least 70%.
Work on `CC(=NOCC(C)CON=C(C)c1ccc(C)c(C)n1)c1cc(C)cc(C)n1` (racemic) [Compound 694] yielded an efficacy of at least 70%.
Compound `CC[Si](C)(CON=C(C)c1cccc(C)n1)CON=C(C)c1cccc(C)n1` [Compound 785] has an efficacy of at least 70%.
In the case of `CCCC(CON=C(C)c1ccc(C)c(C)n1)CON=C(C)c1ccc(C)c(C)n1` (stereo not drawn) [Compound 316], the efficacy is reported as at least 70%.
Work on `C=C(CON=C(C)c1cccc(C)n1)CON=C(C)c1cc(C)cc(C)n1` [Compound 474] yielded an efficacy of at least 70%.
For `CC(=NOCCC(C)ON=C(C)c1cc(C)cc(C)n1)c1cc(C)cc(C)n1` (stereo not drawn) [Compound 558], the efficacy was at least 70%.
With `CCC(=NOCC(C)CON=C(CC)c1cc(C)cc(C)n1)c1cc(C)cc(C)n1` (mixture of isomers) [Compound 572] the efficacy was at least 70%.
